US20220119507A1 (OHEALTH BIOPHARMACEUTICAL SUZHOU, published 2022)
No constants are given. Whether binding was seen depends on the method and setting. Some binding calls cover weakened binding; strength is not graded here.

Protein sequences, listed by entry. Tags and fused reporters are not part of them. Lines headed by an entry give the natural chain unless they say otherwise; changes in a name come on top.
UniProt P26022: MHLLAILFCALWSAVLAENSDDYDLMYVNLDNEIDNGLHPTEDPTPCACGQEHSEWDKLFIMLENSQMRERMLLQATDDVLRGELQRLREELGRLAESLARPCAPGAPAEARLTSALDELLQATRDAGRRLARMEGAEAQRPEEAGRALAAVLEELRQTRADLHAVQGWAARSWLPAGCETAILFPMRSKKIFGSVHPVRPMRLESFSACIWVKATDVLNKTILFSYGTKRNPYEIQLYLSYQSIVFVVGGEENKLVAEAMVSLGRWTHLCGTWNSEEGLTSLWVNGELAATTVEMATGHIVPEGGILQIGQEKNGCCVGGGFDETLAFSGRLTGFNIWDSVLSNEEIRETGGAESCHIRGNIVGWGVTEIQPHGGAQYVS

Target: PTX3/FL, full-length fragment of PTX3 recombinant protein listed as SEQ ID NO:15 (human) (UniProt P26022)
Experiment: ELISA on coated PTX3/FL (FIG. 5)

- binding: binds
B1: PTX3 monoclonal antibody of EXAMPLE 1 (antibody, V domains shown)
VH: EVQLQQSGAELVKPGASVKLSCTASDFNIKHTYLHWVLQRPEQGLEWIGRIDPANGDTKYDPKFQGKATITADTSSNTAYLHLSSLTSEDTAVYYCARVTTVVGFDYWGQGTTLTVSS
VL: QIVLTQSPAIMSTSLGERVTMTCTASSSVISTYLNWYQQKPGSSPKLWIYSTSNLASGVPARFSGSGSGTSYSLTISSMEAEDAATYFCHQFQRSPLTFGAGTKLELKR
notes: also called PTX3 mAb
